The target in one experiment is human MRGPRX2 (Homo sapiens, UniProt Q96LB1). As to the kind of experiment: In vitro target binding assay: BRET between MRGPRX2-Nluc and Venus-β-arrestin1 in transfected HEK-293T cells, antagonist mode against agonist R-ZINC-3573 (EC80). Particulars: antagonism of agonist R-ZINC-3573 at EC80, net BRET. The text has this: Bioluminescence Resonance Energy Transfer (BRET) is an important biophysical technique for monitoring molecular interactions, and has been widely used to study protein-protein interactions in living cells. This technique requires the relevant proteins to be linked to an energy donor (such as luciferase) and an acceptor (such as a fluorescent protein). When a relevant drug molecule interacts with the protein, the protein structure alters, causing a change in the distance between the energy donor and the energy acceptor. The luminescence energy induced by the chemical reaction is transferred to the corresponding acceptor, resulting in increased acceptor emission, and generating a BRET signal. In this work, a DNA-synthesized target human MRGPRX2 and a donor luciferase Nluc (NanoLuc®Promega) (Supplier: Beijing Tsingke, Lot No.: SZ0171228-1), as well as an acceptor fluorescent protein Venus and the relevant test protein, namely human β-arrestin1 (ARRB1) (Supplier: Guangzhou Dahong Biotechnology, Lot No. HY22694-4396), were utilized, and were inserted into the eukaryotic expression vector plasmid pcDNA3.1(+) (Supplier: Qiyun Bio, Lot No.: QY2310) as fusion genes via a Linker sequence (GGSG). The cell line selected for the experiment was human embryonic kidney cells HEK-293T. The human embryonic kidney cell line HEK-293T was routinely cultured in 10 cm cell culture dishes using complete culture medium consisting of high-glucose DMEM medium supplemented with 10% (V/V) fetal bovine serum. Cells were seeded at 2×10^6 cells/10 cm dish on the first day of culture, and passaged every 72 h with the same number of cells. One day prior to transfection, cells were resuspended, counted, and seeded at a density of 2×10^6 cells/6 cm dish or 4×10^6 cells/10 cm dish. Transfection was carried out 16-24 h after seeding. Plasmids constructed with the fusion protein gene were transfected into the expression cell line, and the transfected cells were cultured under appropriate conditions for a period of time to allow sufficient expression of the fusion proteins. Transfection was performed by encapsulating plasmid DNA with PEI reagent, and the encapsulation process should to be carried out in Opti-MEM medium. The ratio of plasmid, PEI (Supplier: Yeasen Biotechnology, Lot No.: WP5430010), and Opti-MEM (Supplier: Gibco, Lot No.: 2883564) was 1:4:14 (W: W: V). The encapsulated plasmid was added to an appropriate amount of complete culture medium, amd gently mixed, which was then used to replace the existing culture medium of the previously plated cells. Cells were harvested 24 h after transfection. Subsequently, cells were resuspended using HBSS (Source: Biosharp, Lot No.: 24179687) and counted with a cell counter. The cells were diluted to a density of (3~5) ×10^5 cells/mL, and then seeded into a flat-bottom white 96-well microplate at 100 µ L/well, resulting in (3~5) ×10^4 cells per well. In each well, 10 µ L of antagonist compounds diluted with HBSS a different concentrations were added firstly, then the agonist compound at a specific concentration (EC80) was added. After reacting for 2 min, the substrate Furimazine (Supplier: TargetMol, Lot No.: 362434) at a final concentration of 10 µM was added. After reacting for another 2 min, the 96-well plate was placed in a PHERAstar FSX microplate reader (Supplier: BMG Labtech) to simultaneously measure the readings at wavelengths of 440 nm and 530 nm. Based on the fluorescence readings at 440 nm and 530 nm, the Ratio and net BRET were calculated. Ratio = Em530 nm / Em440 nm, and net BRET = Ratio co-transfection - Ratio single-transfection. The calculated net BRET values were inputted into GraphPad Prism 9, and curve fitting via nonlinear regression (four-parameter equation) and IC50 calculation were performed.
(BRET reads energy transfer from a luciferase to a nearby fluorophore.)

Chains of the proteins cited; added tags and fusions are not shown.
UniProt Q96LB1, whole entry: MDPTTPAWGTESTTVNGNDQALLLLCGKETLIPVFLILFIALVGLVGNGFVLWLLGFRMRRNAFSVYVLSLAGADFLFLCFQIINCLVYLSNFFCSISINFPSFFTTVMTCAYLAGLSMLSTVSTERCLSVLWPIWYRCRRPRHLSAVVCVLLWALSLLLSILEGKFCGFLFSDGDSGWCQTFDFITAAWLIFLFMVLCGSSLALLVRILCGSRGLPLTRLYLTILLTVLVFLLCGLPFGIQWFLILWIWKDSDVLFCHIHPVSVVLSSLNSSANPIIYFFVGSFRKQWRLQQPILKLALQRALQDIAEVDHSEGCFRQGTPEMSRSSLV

Experiment [1] has as its system BALB/c mice. As to the kind of experiment: Psoriasis model: imiquimod cream on mouse back, PASI score. Particulars: 4mg/g Topical application, once daily, mean ± SEM. The protocol:
(§1) Experimental animals: BALB/c mice, from Guangdong Vital River Laboratory Animal Technology Co., Ltd.
The clinical severity of psoriasis was assessed using the Psoriasis Area and Severity Index (PASI) score. The PASI scoring criteria for mice are as follows:
The hair on the back of the mice was shaved, and the application area was marked with a marker pen. Imiquimod cream (Supplier: Sichuan Mingxin Pharmaceutical, Lot No.: 24054002) was applied to the back of the mice for several consecutive days to establish a mouse model of psoriasis. Before daily application, the residual cream was removed using pure water.
Administration was initiated on the day of grouping, which was designated as D1, and was performed once daily for 8 consecutive days. The normal control group and the model control group were administered with vehicle alone under the same conditions. Mice were scored according to the PASI (Psoriasis area and severity index). The administration regimen for the mouse psoriasis model was as follows: […]

Experiment [2] has as its system BALB/c mice. The experiment can be described thus: Allergic rhinitis model: OVA sensitization and nasal challenge, number of sneezes. Particulars: 5mg/kg p.o. once daily, within 10 min after the nasal challenge. As for the experimental part:
as §1
Modeling was initiated on the day of grouping, which was designated as M1. Except for the normal group, mice in all modeling groups were intraperitoneally injected with a sensitization solution of (250 µg OVA (Ovalbumin) (Supplier: Shanghai Macklin, Lot No.: C16255388) mixed with 5 mg aluminum hydroxide/mL) per mouse, while the normal control group was given an equal volume of sterile PBS solution. The injection cycle was M1, M7, and M14. Starting from M21, challenge was carried out by nasal instillation once daily for 7 consecutive days. The challenge solution was a 50 mg/mL OVA solution, and a volume of 10 µL was instilled into each nostril per time. The normal control group was not subjected to nasal instillation.
Administration was initiated on the day of the challenge by nasal instillation, which was designated as D1, and was performed once daily for 7 consecutive days. The normal control group and the model control group were administered with vehicle alone under the same conditions:
The number of sneezes in each group was recorded within 10 min after the nasal challenge every day during the administration period.

pIC50: −log10 of the molar value. Structures were worked out from names or drawings and are uncertain.

In general, pIC50 refers to −log10 of the IC50, conventionally taken in molar units.

Consider `CCCCCCCCCNS(=O)(=O)c1ccc(-c2c(F)cc3c(=O)c(C(=O)O)cn(C4CC4)c3c2OC)cc1`, for which the pIC50 on human MRGPRX2 is 6.00 to 7.00.
As for `O=C(O)c1cn(C2CC2)c2cc(-c3ccc(S(=O)(=O)N4CCCC4)cc3)c(F)cc2c1=O`, the pIC50 on human MRGPRX2 is 5.00 to 6.00.
`O=C(O)c1cn(C2CC2)c2c(Cl)c(-c3ccc(S(=O)(=O)NC4CCCCC4)nc3)c(F)cc2c1=O` showed a pIC50 at human MRGPRX2 of 5.00 to 6.00.
The same measure, in the same setting: the same measure for `O=C(O)c1cn(C2CC2)c2c(Cl)c(-c3ccc(S(=O)(=O)N4CCCC4)cc3)c(F)cc2c1=O`: 5.00 to 6.00.
On the same count and under the same terms, the same measure for `C=CCNc1ccc(-c2nc3c(cc2F)c(=O)c(C(=O)O)cn3C2CC2)cc1`: 4.10 to 5.00; for `CCCCCCCNS(=O)(=O)c1ccc(-c2cc3c(cc2F)c(=O)c(C(=O)OC)cn3C2CC2)cc1`: 6.00 to 7.00; for `CC(C)(C)CNC(=O)c1ccc(-c2cc3c(cc2F)c(=O)c(C(=O)O)cn3C2CC2)cc1`: 4.10 to 5.00.
As to `O=C(O)c1cn(C2CC2)c2cc(-c3ccc(S(=O)(=O)NC4CCOCC4)nc3)c(F)cc2c1=O`, at human MRGPRX2, the pIC50 is 4.10 to 5.00.
The same measure, in the same setting: the same measure for `NS(=O)(=O)c1ccc(-c2cc3c(cc2F)c(=O)c(C(=O)O)cn3C2CC2)cc1F`: 4.10 to 5.00.
Turning to `O=C(O)c1cn(C2CC2)c2cc(-c3ccc(S(=O)(=O)N4CC(F)(F)C4)nc3)c(F)cc2c1=O`, the figures for the PASI score in the experiment with BALB/c mice [1] (D1), in the experiment on BALB/c mice [1] (D2) and with BALB/c mice [1] (D3) were 0, 0.5±0.3 and 1.8±0.3, respectively. The molecule further showed a pIC50 at human MRGPRX2 of 5.00 to 6.00.
On human MRGPRX2, `O=C(O)c1cn(C2CC2)c2nc(-c3ccc(S(=O)(=O)NCCCC(F)(F)F)cc3)c(F)cc2c1=O` had a pIC50 of 5.00 to 6.00.
Still for that read-out and setting: the same measure for `C=CCNc1ccc(-c2c(F)cc3c(=O)c(C(=O)O)cn(C4CC4)c3c2Cl)cn1`: 5.00 to 6.00.
On the same count and under the same terms, the same measure for `O=C(O)c1cn(C2CC2)c2cc(-c3ccc(NC(=O)C(F)F)nc3)c(F)cc2c1=O`: 4.10 to 5.00.
Regarding `CCCCCNS(=O)(=O)c1ccc(-c2cc3c(cc2F)c(=O)c(C(=O)OC)cn3C2CC2)cn1`, the number of sneezes in the experiment with BALB/c mice [2] (D1) is given as 2.4 number of sneezes/mouse; in the experiment on BALB/c mice [2] (D2), 1.3 number of sneezes/mouse; in the experiment on BALB/c mice [2] (D3) it was 14.5 number of sneezes/mouse; with BALB/c mice [2] (D4) it was 7.6 number of sneezes/mouse; with BALB/c mice [2] (D5), 7.2 number of sneezes/mouse; with BALB/c mice [2] (D6), 13.4 number of sneezes/mouse. Moreover, in the experiment on BALB/c mice [2] (D7), the number of sneezes is 14.8 number of sneezes/mouse. On human MRGPRX2, this molecule showed a pIC50 of 5.00 to 6.00.
As to `CCCCCCCNS(=O)(=O)c1ccc(-c2c(F)cc3c(=O)c(C(=O)O)cn(C4CC4)c3c2OC)nc1`, the number of sneezes in the experiment with BALB/c mice [2] (D1) was 1.5 number of sneezes/mouse; in the experiment with BALB/c mice [2] (D2), 4.7 number of sneezes/mouse; in the experiment with BALB/c mice [2] (D3), 15.2 number of sneezes/mouse; in the experiment on BALB/c mice [2] (D4), 13.5 number of sneezes/mouse; in the experiment on BALB/c mice [2] (D5), 9.8 number of sneezes/mouse; with BALB/c mice [2] (D6), 14.0 number of sneezes/mouse. Further, the number of sneezes with BALB/c mice [2] (D7) is listed as 12.0 number of sneezes/mouse. The molecule further gave a pIC50 on human MRGPRX2 of 6.00 to 7.00.
As to `O=C(O)c1cn(C2CC2)c2cc(-c3ccc(S(=O)(=O)N4CCCC4)nc3)c(F)cc2c1=O`, the pIC50 on human MRGPRX2 is 5.00 to 6.00.
The same measure, in the same setting: the same measure for `CCCS(=O)(=O)Nc1ccc(-c2c(F)cc3c(=O)c(C(=O)O)cn(C4CC4)c3c2Cl)nc1`: 4.10 to 5.00; for `CCCCCNS(=O)(=O)c1ccc(-c2cc3c(cc2F)c(=O)c(C(=O)O)cn3CC)cc1`: 5.00 to 6.00.
On the same count and under the same terms, the same measure for `CCn1cc(C(=O)O)c(=O)c2cc(F)c(-c3ccc(S(=O)(=O)N4CCCC4)cc3)cc21`: 5.00 to 6.00; for `CCCNS(=O)(=O)c1ccc(-c2cc3c(cc2F)c(=O)c(C(=O)O)cn3C2CC2)cn1`: 4.10 to 5.00; for `CCCCCNS(=O)(=O)c1ccc(-c2cc3c(cc2F)c(=O)c(C(=O)O)cn3C2CC2)cn1`: 5.00 to 6.00.
Consider `CCCCCCCNS(=O)(=O)c1ccc(-c2cc3c(cc2F)c(=O)c(C(=O)O)cn3C2CC2)nc1`, for which the pIC50 on human MRGPRX2 was 5.00 to 6.00.
The molecule `NS(=O)(=O)c1ccc(-c2cc3c(cc2F)c(=O)c(C(=O)O)cn3C2CC2)cn1` showed a pIC50 at human MRGPRX2 of 5.00 to 6.00.
With `NC(=O)c1cc(-c2c(F)cc3c(=O)c(C(=O)O)cn(C4CC4)c3c2F)ccn1`, the PASI score in the experiment with BALB/c mice [1] (D1) is recorded as 0; with BALB/c mice [1] (D2), 0.6±0.3; in the experiment on BALB/c mice [1] (D3), 1.6±0.3; with BALB/c mice [1] (D4) it was 2.7±0.4. This molecule had a pIC50 on human MRGPRX2 of 5.00 to 6.00.
Molecule `O=C(O)c1cn(C2CC2)c2cc(-c3ccc(S(=O)(=O)N4CCCCC4)nc3)c(F)cc2c1=O` showed a pIC50 at human MRGPRX2 of 5.00 to 6.00.
Same read-out and setting: the same measure for `NC(=O)c1cc(-c2c(F)cc3c(=O)c(C(=O)O)cn(C4CC4)c3c2Cl)ccn1`: 4.10 to 5.00.
For `CCCS(=O)(=O)Nc1ccc(-c2cc3c(cc2F)c(=O)c(C(=O)O)cn3C2CC2)cn1`, the PASI score in the experiment on BALB/c mice [1] (D1) amounted to 0; in the experiment on BALB/c mice [1] (D2), 0.6±0.3; with BALB/c mice [1] (D3) it was 1.9±0.3; in the experiment on BALB/c mice [1] (D4), 3.1±0.3; with BALB/c mice [1] (D5), 3.9±0.4. Moreover, at human MRGPRX2, the pIC50 was 5.00 to 6.00.
In turn, `CCCCCNS(=O)(=O)c1ccc(-c2c(F)cc3c(=O)c(C(=O)O)cn(CC)c3c2F)cn1` showed a pIC50 at human MRGPRX2 of 5.00 to 6.00.
The same measure, in the same setting: the same measure for `CCCNS(=O)(=O)c1ccc(-c2cc3c(cc2F)c(=O)c(C(=O)OC)cn3C2CC2)cc1`: 4.10 to 5.00.
